The results in this text go back to article PMC6160412.

Protein sequences, listed by entry. Tags and fused reporters are not part of them. Lines headed by an entry give the natural chain unless they say otherwise; changes in a name come on top. Residues count along the entry.
UniProt P58400: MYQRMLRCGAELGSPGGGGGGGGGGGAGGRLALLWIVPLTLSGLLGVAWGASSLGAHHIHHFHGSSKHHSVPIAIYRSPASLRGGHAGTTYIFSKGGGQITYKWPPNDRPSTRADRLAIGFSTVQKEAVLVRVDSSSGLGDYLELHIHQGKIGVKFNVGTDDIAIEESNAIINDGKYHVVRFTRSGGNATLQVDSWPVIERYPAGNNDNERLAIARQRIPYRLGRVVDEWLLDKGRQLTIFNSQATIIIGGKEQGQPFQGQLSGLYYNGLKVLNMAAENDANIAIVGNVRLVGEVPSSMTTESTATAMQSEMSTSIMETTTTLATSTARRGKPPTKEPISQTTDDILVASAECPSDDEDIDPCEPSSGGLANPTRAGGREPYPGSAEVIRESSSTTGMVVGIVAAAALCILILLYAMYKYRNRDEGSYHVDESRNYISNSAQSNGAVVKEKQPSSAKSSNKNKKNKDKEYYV
UniProt Q99K10, residues 46-666: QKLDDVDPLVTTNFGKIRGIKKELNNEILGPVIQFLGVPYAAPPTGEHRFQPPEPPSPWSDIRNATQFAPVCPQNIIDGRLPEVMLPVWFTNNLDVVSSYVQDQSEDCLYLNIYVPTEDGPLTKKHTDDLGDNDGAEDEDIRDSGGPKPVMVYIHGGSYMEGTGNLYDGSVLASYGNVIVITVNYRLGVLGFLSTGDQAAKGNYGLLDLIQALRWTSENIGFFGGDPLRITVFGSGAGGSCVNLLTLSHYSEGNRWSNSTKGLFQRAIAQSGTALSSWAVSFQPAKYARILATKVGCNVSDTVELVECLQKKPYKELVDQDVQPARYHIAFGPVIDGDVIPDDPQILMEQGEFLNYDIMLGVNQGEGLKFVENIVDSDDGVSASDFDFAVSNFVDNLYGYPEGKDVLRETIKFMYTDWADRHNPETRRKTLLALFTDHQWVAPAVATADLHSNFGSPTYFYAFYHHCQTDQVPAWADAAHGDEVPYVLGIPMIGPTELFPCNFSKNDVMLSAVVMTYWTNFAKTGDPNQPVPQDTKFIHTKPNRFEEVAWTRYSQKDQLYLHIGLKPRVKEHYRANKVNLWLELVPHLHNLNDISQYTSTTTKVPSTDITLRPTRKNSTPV

Changes are numbered by the printed parent chain. Results are given in words; binding and its absence hold for the method and conditions named. For some assays here: A result given as binding can be weak or reduced; the word gives no strength.

In assay [1] the target is human LRRTM2 LRR domain, wild type (human) (UniProt O43300). Put plainly: SPR; Biacore T200; wild-type or mutant LRRTM immobilised on a CM5 chip by amine coupling; Nrxn1β as analyte in two-fold dilutions from 40 µM (from 160 µM for +S4 and R206A); 25 °C; 20 mM Hepes-NaOH pH 7.5, 150 mM NaCl, 2 mM CaCl2, 0.005% Tween-20, 0.5 g/L BSA; equilibrium KD; both purified. For orientation: Surface plasmon resonance follows binding to a sensor surface in real time, without labels.

Assay [2] addresses human LRRTM2 LRR domain, H355A mutant (human) (UniProt O43300). Put plainly: crystal structure; 20 µM LRRTM2^H355A and 40 µM Nrxn1β mixed 1:2 with 2 mM CaCl2, neuraminidase added; 15% PEG3350, 0.1 M sodium/potassium phosphate pH 6.8, 20 °C; four complexes in the asymmetric unit; both purified.
The target in assay [3] is human LRRTM2 LRR domain, wild type (human) (UniProt O43300). In words: SPR; competition: LRRTM2 immobilised; Nrxn1β (–S4):NL1 mixtures at 1:1 or 1:2.5 molar ratio co-injected, two-fold dilutions from 40 µM Nrxn1β and 40 or 100 µM NL1; 25 °C; same buffer as the direct SPR; both purified.
In assay [4] the target is T1, human LRRTM2 LRR domain, F357A mutant (human) (UniProt O43300).
T1 sequence: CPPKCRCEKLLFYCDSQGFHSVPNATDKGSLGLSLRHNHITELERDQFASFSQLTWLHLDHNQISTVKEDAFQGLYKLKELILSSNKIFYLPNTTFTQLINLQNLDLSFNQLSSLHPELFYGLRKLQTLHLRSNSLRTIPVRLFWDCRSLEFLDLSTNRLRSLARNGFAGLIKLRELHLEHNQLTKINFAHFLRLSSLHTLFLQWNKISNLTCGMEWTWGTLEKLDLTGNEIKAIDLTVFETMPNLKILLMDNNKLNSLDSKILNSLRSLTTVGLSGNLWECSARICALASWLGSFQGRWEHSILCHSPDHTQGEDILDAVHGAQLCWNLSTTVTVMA
Put plainly: SPR; Biacore T200; wild-type or mutant LRRTM immobilised on a CM5 chip by amine coupling; Nrxn1β as analyte in two-fold dilutions from 40 µM (from 160 µM for +S4 and R206A); 25 °C; 20 mM Hepes-NaOH pH 7.5, 150 mM NaCl, 2 mM CaCl2, 0.005% Tween-20, 0.5 g/L BSA; equilibrium KD; both purified.

For assay [5], the target named is T2, LRRTM2-based LRRTM2–LRRTM3 chimera (LRRTM2+3) LRR (human) (UniProt O43300).
T2 sequence: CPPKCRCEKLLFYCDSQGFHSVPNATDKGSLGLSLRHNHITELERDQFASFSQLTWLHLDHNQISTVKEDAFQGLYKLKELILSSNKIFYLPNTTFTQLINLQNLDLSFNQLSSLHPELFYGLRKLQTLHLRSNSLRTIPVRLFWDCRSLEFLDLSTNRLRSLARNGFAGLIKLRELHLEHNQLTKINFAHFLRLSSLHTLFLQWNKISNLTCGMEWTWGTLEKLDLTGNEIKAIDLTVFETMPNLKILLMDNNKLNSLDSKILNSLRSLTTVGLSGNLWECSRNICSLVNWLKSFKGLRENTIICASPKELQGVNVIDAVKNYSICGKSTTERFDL
Described as above.

Assay [6] addresses T3, human LRRTM2 LRR domain, E348Q mutant (human) (UniProt O43300).
T3 sequence: T1 sequence with E315Q, A324F
The assay is described as above.

The target in assay [7] is GST-fused human Nrxn1β (–S4) LNS domain (human) (UniProt P58400). Put plainly: pull-down; GST-Nrxn1β (–S4) (5 µM) on Glutathione Sepharose FF with NL1 (5 µM) and LRRTM2 at 1:1:1 or 1:1:5 molar ratio; 20 mM Hepes-NaOH pH 7.5, 150 mM NaCl, 2 mM CaCl2, 0.005% Tween-20; SDS-PAGE with Coomassie staining; both purified.
The target in assay [8] is human Nrxn1β LNS domain (–S4), wild type (human) (UniProt P58400). In words: SPR; competition: LRRTM2 immobilised; Nrxn1β (–S4):NL1 mixtures at 1:1 or 1:2.5 molar ratio co-injected, two-fold dilutions from 40 µM Nrxn1β and 40 or 100 µM NL1; 25 °C; same buffer as the direct SPR; both purified.

Turning to “human Nrxn1β LNS domain (–S4), D141A mutant (from UniProt P58400-2) (domain or fragment)”, in assay [1], the binding entry is “binds weakly”.
In the case of “human Nrxn1β LNS domain (–S4), wild type (from UniProt P58400-1) (domain or fragment)”, the binding result in assay [2] was “binds”; in assay [3], “binds”; in assay [4], “no binding (tested: 40 µM)”; in assay [5], “no binding (tested: 40 µM)”; in assay [6] it was “no binding (tested: 40 µM)”.
Consider “mouse NL1 extracellular domain (from UniProt Q99K10 46-666) (domain or fragment)”, for which the binding entry in assay [7] and in assay [8] was “binds” each time.
